Laboratory results: US20170145086A1
Results are given in words; binding and its absence hold for the method and conditions named. Some results given as binding are weak or reduced against the parent protein; the word gives no strength.

By UniProt entry, the sequences of proteins in these tests, tags left out. Where a name states a change or a piece, a line headed by the entry shows the natural chain unless it says otherwise.
UniProt O75888: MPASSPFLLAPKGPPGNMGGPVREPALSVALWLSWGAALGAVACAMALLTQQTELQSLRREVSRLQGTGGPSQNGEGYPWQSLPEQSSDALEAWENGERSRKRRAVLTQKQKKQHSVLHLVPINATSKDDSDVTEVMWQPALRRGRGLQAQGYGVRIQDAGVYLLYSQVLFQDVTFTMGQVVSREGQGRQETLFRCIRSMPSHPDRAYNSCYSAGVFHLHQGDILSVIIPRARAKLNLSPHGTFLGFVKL

Tests used:
[1] = target: HA-GCN4 hAPRIL (amino acid residues 105-250) (human) (UniProt O75888); test: indirect ELISA on human APRIL
[2] = target: HA-GCN4 hAPRIL (amino acid residues 105-250) (human) (UniProt O75888); test: blocking ELISA; blocked: human APRIL binding to human TACI-Fc
[3] = target: HA-GCN4 hAPRIL (amino acid residues 105-250) (human) (UniProt O75888); test: blocking ELISA; blocked: human APRIL binding to BCMA-Fc
[4] = target: HA-GCN4 hAPRIL (amino acid residues 105-250) (human) (UniProt O75888); test: blocking ELISA; blocked: human APRIL binding to TACI-Fc
[5] = target: HA-GCN4 hAPRIL (amino acid residues 105-250) (human) (UniProt O75888); test: blocking ELISA; blocked: human APRIL binding to human BCMA-Fc
[6] = target: FLAG-tagged human APRIL (wild type and site-directed variants, Example 7) (human) (UniProt O75888); test: ELISA, FLAG-APRIL captured with anti-FLAG antibody

Row | binding [1] | binding [2] | binding [3] | binding [4] | binding [5] | binding [6] | Binder
1 | binds | binds | binds | binds | binds | – | monoclonal antibody 2419-0205 (antibody, IgG2, V domains shown) VH: QVQLVQSGAEVKKPGSSVKVSCKASGYTFTDYTIHWVRQAPGQGLEWMGWIYPLRGSINYAQKFQGRVTITADKSTSTAYMELSSLRSEDTAVYFCARHGAYYSNAFDYWGQGTLVTVSS VL: EIVMTQSPATLSVSPGERATLSCRASESVDNDGIRFLHWYQQKPGQAPRLLIYRASNRETGIPARFSGSGSGTEFTLTISSLQSEDFAVYYCQQSNKDPYTFGGGTKVEIK
2 | – | – | – | – | – | binds | monoclonal antibody 3833 (antibody, V domains shown) VH: QVQLQQSGAELVRPGTSVKMSCKAAGYTFTNYWIGWVKQRPGHGLEWIGDIYPGGIGGGYTKYNEKFKGKATLTADTSSSTAYMQLGSLTSEDSAIYFCSRSETGRAMDYWGQGTSVTVSS VL: DIQMTQSPSSLSASLGGKVTITCKASQDINKYIAWYQHKPGKGPRLLIHYTSTLKPGIPSRFSGSGSGRDYSFSISDLEPEDIATYYCLQYDNLNTFGGGTKLEIK
